# No constants are given. Whether binding was seen depends on the method and setting. In cells and extracts the contact can be indirect. Binding calls can cover weak binding; strength is not graded here.
# Sequences of proteins named here, by UniProt entry; tags and fusion partners are left off. A change or cut given only in a name is not applied to a line headed by its entry.
# UniProt J9W0H7: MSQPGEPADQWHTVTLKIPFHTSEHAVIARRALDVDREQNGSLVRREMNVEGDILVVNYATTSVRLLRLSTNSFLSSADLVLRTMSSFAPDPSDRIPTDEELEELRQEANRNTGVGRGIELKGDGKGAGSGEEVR
# UniProt J9VIU8: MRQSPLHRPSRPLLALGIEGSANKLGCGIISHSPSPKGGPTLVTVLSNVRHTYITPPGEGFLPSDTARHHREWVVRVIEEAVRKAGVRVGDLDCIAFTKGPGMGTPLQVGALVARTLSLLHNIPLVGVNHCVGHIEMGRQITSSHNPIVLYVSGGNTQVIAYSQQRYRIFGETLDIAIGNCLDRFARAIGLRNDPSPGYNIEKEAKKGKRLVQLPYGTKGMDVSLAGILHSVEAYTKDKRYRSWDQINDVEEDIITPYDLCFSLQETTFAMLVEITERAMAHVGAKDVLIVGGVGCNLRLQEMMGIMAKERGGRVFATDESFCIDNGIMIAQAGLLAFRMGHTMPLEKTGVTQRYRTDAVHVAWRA
# Target: Pcc1-4xFLAG (C. neoformans Pcc1 tagged with 4xFLAG at the C terminus) (Cryptococcus neoformans) (UniProt J9W0H7)
# Assay: co-IP; whole-cell lysates of C. neoformans strains carrying both tagged alleles; anti-FLAG antibody overnight at 4°C, protein G Sepharose 6 h at 4°C, washed thrice with lysis buffer (50 mM Tris-Cl pH 7.5, 1% sodium deoxycholate, 1% Triton X-100) containing 50 mM NaCl; anti-HA western blot
substance,measurement,value
Kae1-6xHA (C. neoformans Kae1 tagged with 6xHA at the C terminus) (from UniProt J9VIU8),binding,binds

# From article PMC9765431
